Measured values from the supplement of paper PMC10663445.
Where a name gives a salt, the structure may show the parent alone. Some of the results follow. Most values come without repeats; read them as rough.

system: hsa-miR-132-3p; assay: miR-132-3p level in NGN2-iNs after compound treatment (TMM-normalised, ComBat batch-corrected) (batch-corrected normalised expression (arbitrary units)); higher = higher miR-132-3p expression; settings: 10 µM; 24 h; human iPSC-derived NGN2 neurons (BR43)

| Structure (SMILES) | miR-132-3p level in NGN2-iNs |
| --- | --- |
| CC(C)N(CCNC(=O)CN1CCCC1=O)C(C)C [Pramiracetam] | -0.467 |
| CNCC(=O)c1ccc(O)c(O)c1 [Adrenalone HCl] | 0.242 |
| COC(=O)C1=CCCN(C)C1 [Arecoline HBr] | 0.595 |
| CC[C@@]1(O)C(=O)OCc2c1cc1n(c2=O)Cc2cc3ccccc3nc2-1 [Camptothecin] | 0.0455 |
| CN1c2ccccc2C(NCCCCCCC(=O)O)c2ccc(Cl)cc2S1(=O)=O (stereo not given) [Tianeptine sodium] | -0.707 |
| CCNC(=O)C[C@@H]1N=C(c2ccc(Cl)cc2)c2cc(OC)ccc2-n2c(C)nnc21 | -0.424 |
| O=C(O)CNC(=O)c1c(O)c2ccccc2n(Cc2ccccc2)c1=O | -0.512 |
| CC(=O)Nc1ccc(Cc2ccc(NC(C)=O)cc2)cc1 | 0.883 |
| COc1cc(-n2c(=S)[nH]c3ccccc3c2=O)c(Cl)cc1Cl [Mdivi-1] | -0.458 |
| C[C@H]1CCC/C=C/[C@@H]2C[C@H](O)C[C@H]2[C@H](O)/C=C/C(=O)O1 [Brefeldin A] | -0.886 |
| CN(C)Cc1c[nH]c2ccccc12 [Gramine] | -0.229 |
| O=C(O[C@H]1C[C@H]2CC[C@@H](C1)[N+]21CCCC1)C(O)(c1ccccc1)c1ccccc1 [Trospium chloride] | -0.245 |
| C1=C2CCCN[C@H]2[C@@H]2C[C@H]1[C@H]1CCCCN1C2 [Aloperine] | 0.669 |
| CN1CCC(c2c[nH]c3ccc(O)cc23)CC1 | -0.472 |
| NC(=O)CN1CC(O)CC1=O (stereo not given) [Oxiracetam] | 1.33 |
| COC[C@H]1OC(=O)c2coc3c2[C@@]1(C)C1=C(C3=O)[C@@H]2CCC(=O)[C@@]2(C)C[C@H]1OC(C)=O | 0.823 |
| Cc1cccc(C(C)c2c[nH]cn2)c1C (stereo not given) [Medetomidine HCl] | -0.112 |
| C=C[C@H]1CN2CC[C@H]1C[C@H]2[C@H](O)c1ccnc2ccccc12 [Cinchonidine] | -0.0799 |
| C/C(=C\c1csc(C)n1)[C@@H]1C[C@@H]2O[C@]2(C)CCC[C@H](C)[C@H](O)[C@@H](C)C(=O)C(C)(C)[C@@H](O)CC(=O)O1 [Patupilone (Epothilone B)] | 0.0932 |
| O=c1[nH]c2ccccc2n1CCCN1CCC(n2c(=O)[nH]c3cc(Cl)ccc32)CC1 [Domperidone] | -0.741 |
| Cc1cc(O)ccc1Cl [Chlorocresol] | -0.402 |
| c1cc2c(cc1[C@H]1OC[C@H]3[C@@H]1CO[C@@H]3c1ccc3c(c1)OCO3)OCO2 [Sesamin] | 1.16 |
| Nc1nc(N)nc(NC2CC2)n1 [Cyromazine] | -1.13 |
| CN1[C@@H]2CC[C@H]1C[C@@H](OC(=O)[C@H](CO)c1ccccc1)C2 [Hyoscyamine] | -0.00177 |
| Fc1cc(F)c2c(c1)[C@H]1C=CC[C@H]1C(c1cccnc1)N2 (stereo not given in full) [Golgicide A] | 1.02 |

In the list so far, 2 contain an aryl methoxy group.

| Structure (SMILES) | miR-132-3p level in NGN2-iNs |
| --- | --- |
| CCNC(=O)C[C@@H]1N=C(c2ccc(Cl)cc2)c2cc(OC)ccc2-n2c(C)nnc21 | -0.424 |
| COc1cc(-n2c(=S)[nH]c3ccccc3c2=O)c(Cl)cc1Cl [Mdivi-1] | -0.458 |
